# Laboratory results reported in article PMC3146489.
# Results are given in words; binding and its absence hold for the method and conditions named. For some assays here: Binding seen in cells or lysates may run through a third protein. Some entries that bind do so weakly or less than the wild type.
# Legend:
# FLAG-p53 = FLAG-p53 (UniProt P04637); test: co-IP; HEK 293 cells co-transfected, with or without 10 µM BMH crosslinker for 10 min at room temperature before lysis; anti-FLAG affinity gel overnight at 4°C; IP buffer 50 mM Tris-HCl pH 7.0, 150 mM NaCl, 0.5 mM DTT, 1% NP-40; Western with Myc or FLAG antibodies
# [1] = target: T1, Gal4-DBD-PR-Set7 N-terminal(1-191) bait (human) (UniProt Q9NQR1); test: two-hybrid; … GAL4 Two-Hybrid System 3; Gal4-DBD-PR-Set7 baits and pGADT7-AD-UBC9 co-transformed into AH109 yeast; growth on TDO and QDO + X-alpha-Gal (HIS3, ADE2, lacZ/MEL1 reporters)
# T1 sequence: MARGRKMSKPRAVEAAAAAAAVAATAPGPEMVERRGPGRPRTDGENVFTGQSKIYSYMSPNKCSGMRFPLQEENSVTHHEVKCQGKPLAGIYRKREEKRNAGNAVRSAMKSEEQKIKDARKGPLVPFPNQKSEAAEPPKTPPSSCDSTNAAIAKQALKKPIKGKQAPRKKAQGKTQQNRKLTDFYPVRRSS
Substance,binding (FLAG-p53),binding [1]
Myc-tagged UBC9 (from UniProt P63279 1-158) (enzyme),binds,
"pGADT7-AD-UBC9 (first 126 amino acids of human UBC9, clone recovered from the screen) (from UniProt P63279 1-126) (domain or fragment)",,binds
